This passage reports binding results from article PMC11982375.

Sequences of proteins named here, by UniProt entry; tags and fusion partners are left off. A change or cut given only in a name is not applied to a line headed by its entry.
UniProt P50876: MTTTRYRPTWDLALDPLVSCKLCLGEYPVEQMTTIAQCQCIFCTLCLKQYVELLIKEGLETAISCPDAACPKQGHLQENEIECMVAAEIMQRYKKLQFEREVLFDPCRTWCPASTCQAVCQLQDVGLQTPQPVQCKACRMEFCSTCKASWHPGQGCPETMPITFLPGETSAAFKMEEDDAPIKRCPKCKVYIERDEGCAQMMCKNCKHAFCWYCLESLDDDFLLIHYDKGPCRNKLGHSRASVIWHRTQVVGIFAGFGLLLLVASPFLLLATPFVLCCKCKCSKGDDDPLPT

The target of the experiment is GST-RNF144A (UniProt P50876). Nature of the experiment: pull-down; GST pull down: GST-tagged recombinant protein mixed with His- or Intein-tagged recombinant protein in 20 mM Tris, 150 mM NaCl, 1 mM EDTA, 0.5% Triton-X; Glutathione Sepharose 4B overnight at 4 °C; immunoblot; both purified. Background: Immunoblotting shows a protein as a band on a membrane.

Results are given in words; binding and its absence hold for the method and conditions named. Binding can be weak; no strength is given.

As to “Intein-VRK2 (from UniProt Q86Y07-1 1-508) (enzyme)”, the binding result is listed as “binds”.
